In publication PMC8027267:
These are yes or no findings as the source states them, for the method shown. Binding seen in cells or lysates may run through a third protein. Some entries that bind do so weakly or less than the wild type.

The chains behind the UniProt entries cited, without tags or fusion partners.
UniProt Q96RD7: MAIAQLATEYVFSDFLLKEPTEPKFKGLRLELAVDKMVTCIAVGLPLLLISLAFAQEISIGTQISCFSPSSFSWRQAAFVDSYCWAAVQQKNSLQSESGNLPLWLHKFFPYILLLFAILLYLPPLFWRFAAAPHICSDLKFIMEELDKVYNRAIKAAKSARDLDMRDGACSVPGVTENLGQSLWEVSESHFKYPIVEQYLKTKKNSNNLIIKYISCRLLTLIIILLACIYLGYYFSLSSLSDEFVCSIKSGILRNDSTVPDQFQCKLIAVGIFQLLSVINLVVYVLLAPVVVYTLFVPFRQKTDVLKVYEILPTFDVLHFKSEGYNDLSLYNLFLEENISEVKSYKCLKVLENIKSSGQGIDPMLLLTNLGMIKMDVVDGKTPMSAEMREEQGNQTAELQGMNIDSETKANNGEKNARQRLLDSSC
UniProt P35222: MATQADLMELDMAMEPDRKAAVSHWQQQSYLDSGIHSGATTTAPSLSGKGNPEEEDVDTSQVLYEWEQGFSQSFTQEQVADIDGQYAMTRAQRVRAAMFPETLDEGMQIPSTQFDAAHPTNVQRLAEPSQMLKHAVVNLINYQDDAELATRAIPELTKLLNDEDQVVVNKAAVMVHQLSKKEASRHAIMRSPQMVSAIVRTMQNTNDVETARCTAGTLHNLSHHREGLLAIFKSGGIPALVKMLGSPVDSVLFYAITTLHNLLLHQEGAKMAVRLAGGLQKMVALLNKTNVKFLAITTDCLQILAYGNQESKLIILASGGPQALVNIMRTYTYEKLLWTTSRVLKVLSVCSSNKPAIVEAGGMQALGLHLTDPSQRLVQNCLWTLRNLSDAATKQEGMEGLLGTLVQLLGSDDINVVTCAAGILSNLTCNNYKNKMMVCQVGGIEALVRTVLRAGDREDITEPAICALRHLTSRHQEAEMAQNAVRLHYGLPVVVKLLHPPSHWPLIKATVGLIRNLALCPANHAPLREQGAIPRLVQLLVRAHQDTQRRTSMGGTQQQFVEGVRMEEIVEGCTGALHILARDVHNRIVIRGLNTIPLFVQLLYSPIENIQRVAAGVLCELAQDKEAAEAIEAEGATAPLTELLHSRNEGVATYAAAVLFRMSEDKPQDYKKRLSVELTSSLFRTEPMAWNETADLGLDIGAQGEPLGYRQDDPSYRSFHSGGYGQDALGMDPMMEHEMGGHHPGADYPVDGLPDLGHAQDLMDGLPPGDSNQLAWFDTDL

Key:
[1] = target: Pannexin 1 (PANX1), endogenous in human melanoma cells (human (endogenous in 131/4-5B1, A375-P and A375-MA2)) (UniProt Q96RD7); assay: co-IP; 1 mg lysate of 131/4-5B1 cells (50 mM Tris-HCl pH 7.4, 150 mM NaCl, 1% Triton X-100); IP with anti-PANX1 polyclonal or anti-β-catenin monoclonal antibody and protein A-Sepharose overnight at 4 °C; blots for PANX1 and β-catenin; rabbit or mouse IgG as controls
[2] = target: β-catenin, endogenous in 131/4-5B1 human melanoma cells (human (endogenous in 131/4-5B1)) (UniProt P35222); assay: as above

| Substance | binding [1] | binding [2] |
| --- | --- | --- |
| β-catenin, endogenous in 131/4-5B1 human melanoma cells (from UniProt P35222 1-781) | binds | – |
| Pannexin 1 (PANX1), endogenous in human melanoma cells (from UniProt Q96RD7 1-426) | – | binds |
